Here are results for 17 molecules from PubChem BioAssay AID493014 (National Center for Advancing Translational Sciences (NCATS), 2011).

The AC50 is the midpoint of the concentration-response curve, whichever way the signal moves.

The list shows a part of the results. The main result of the screen is listed elsewhere. These columns were measured beside it and carry no call. Most of these compounds were active or inconclusive in the main read-out, so they are no random draw. Words in brackets tell the shape of the fitted curve; partial curves, single points and poor fits give uncertain potencies.

A short description of this assay: qHTS Assay to Find Inhibitors of Chronic Active B-Cell Receptor Signaling. Particulars: ABC-DLBCL IkBa-CBG/CBR reporter, luminescence ratio (green luciferase fused to IkBa over red control in TMD8 lymphoma cells), 4 h. The method in brief:
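TMD8 ABC-DLBCL cells carrying doxycycline-inducible green luciferase fused to IkappaBalpha plus unfused red luciferase were exposed to compounds (up to 46 uM) for 4 hrs at 37C. Activity came from the overlap-corrected green/red luminescence ratio.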

Setting [1] is: measured here: CBR red luminescence, cell number.
[2] abbreviates: measured here: IkBa-CBG green luminescence.

Consider `COc1ccc(N/N=C(/C(N)=O)C2=NC(C)(C)Cc3ccccc32)cc1`, for which the AC50 under setting [1] is 9.2 µM [falling, partial curve].

In the case of `CC(=O)Nc1ccc(NS(=O)(=O)c2cc(-c3n[nH]c(=O)c4ccccc34)ccc2C)cc1`, under setting [2], the AC50 is 15.8 µM [falling, partial curve].

As for `Cc1c(-c2cccc(Cl)c2)nc2ccccc2c1C(=O)OC/C(O)=C(\C#N)c1nc2ccccc2[nH]1`, the AC50 under setting [1] is 4.47 µM [falling, partial curve, poor fit].

For the molecule `CN1CCN(C2OC(=O)c3ccccc32)CC1` (stereo not drawn), the AC50 under setting [1] is 29.1 µM [falling, single point].

In the case of `COc1cccc(/C=C/C(=O)OCC(=O)NCc2ccco2)c1OC`, under setting [1], the AC50 is 16.4 µM [rising, single point].

For the molecule `Cc1ccc(NC(=O)C(=O)NCc2ccc(/C=N/NC(=O)c3c(C)nc4ccccn34)o2)cc1`, under setting [1], the AC50 was 0.461 µM [falling, full curve, poor fit].

Regarding `CCN(CC)S(=O)(=O)c1cccc(C(=O)Nc2ccc(S(=O)(=O)NC3=NCCCCC3)cc2)c1`, under setting [1], the AC50 is 10.3 µM [rising, partial curve, poor fit].

Turning to `CNC(=S)N(CCc1c(C)[nH]c2ccc(Cl)cc12)Cc1cc(OC)c(OC)c(OC)c1`, the AC50 reads like this: under setting [1], 14.6 µM [falling, single point]; under setting [2], 29.1 µM [rising, single point].

Consider `C=CC(=O)OCCOCCOCCOCCOC(=O)C=C`, for which the AC50 under setting [1] is 14.6 µM [falling, single point].

Regarding `O=C(c1ccc(F)cc1)C(CN1CCOCC1)c1ccccc1` (stereo not drawn), the concentration at half-maximal activity (AC50) under setting [1] was 14.1 µM [falling, partial curve, poor fit].

Take `OCCC1CN(Cc2ccc(Oc3ncccn3)cc2)CCN1C1CCCC1` (stereo not drawn): the AC50 under setting [1] is 35.5 µM [rising, single point].

As for `Cc1cc(C(=O)NN=C2CCCCC2)c2ccccc2n1`, the AC50 under setting [1] was 29.1 µM [rising, single point].

With `O=C(CSc1ccccc1)N1CCc2ccccc21`, the AC50 under setting [1] was 6.51 µM [rising, single point].

As for `COc1ccc(OC)c(NC(=O)CCc2nnc3ccc(N4CCC(C)CC4)nn23)c1`, the AC50 under setting [1] was 0.631 µM [rising, full curve, poor fit].

In the case of `Cc1cc(O)c2/c(=N\N)c(-c3csc(C)n3)coc2c1`, under setting [1], the AC50 was 22.4 µM [falling, partial curve, poor fit].

As to `Cn1cccc1C(=O)NC(=O)COC(=O)c1ccccc1O`, under setting [1], the AC50 is 0.231 µM [rising, full curve, poor fit].

For `CCOc1ccc2nc(NC(=O)CN3C(=O)C4CCCCC4C3=O)sc2c1` (stereo not drawn), the AC50 under setting [1] was 16.4 µM [falling, partial curve, poor fit].
